Several values for one entry are separate records, joined by “and”; a condition that tells them apart may be missing. Equal values may be shown once. The list shows a part of the results. Single values are uncertain here, since repeats match poorly.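 HEK293T cells were given each compound shortly before transfection with a reporter in which red mCherry is followed by the SARS-CoV-2 frameshift element and then GFP in the −1 frame, so GFP appears only after frameshifting.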
What follows are compounds tested on HEK293T (assay: percent viability (nuclei count) relative to control; higher = more viable cells). Settings: 10 µM; 24 h.

Row | Compound | percent viability
1 | CCn1cc(C(=O)O)c(=O)c2cc(F)c(N3CCNCC3)cc21 [norfloxacin] | 342% and 126%
2 | CCCCC(CC)CN1CN(CC(CC)CCCC)CC(C)(N)C1 (stereo not given) [hexetidine] | 208%
3 | O=C(Nc1cccc2c(=O)cc(-c3nnn[nH]3)oc12)c1ccc(OCCCCc2ccccc2)cc1 [Pranlukast] | 375% and 282%
4 | COc1cc(C=CC(=O)N2CCCCCCC2)cc(OC)c1OC | 246%
5 | C[C@@H](c1ncncc1F)[C@](O)(Cn1cncn1)c1ccc(F)cc1F [voriconazole] | 120%
6 | CC(C)(C)c1cc(C(C)(C)C)c(NC(=O)c2c[nH]c3ccccc3c2=O)cc1O [Kalydeco] | 299%
7 | Cc1onc(-c2c(Cl)cccc2Cl)c1C(=O)N[C@@H]1C(=O)N2[C@@H]1SC(C)(C)[C@@H]2C(=O)O | 150%
8 | CCOC(=O)CC(=O)N1CCSC1COc1ccccc1OC (stereo not given) [moguisteine] | 289%
9 | CC(=O)c1ccc2c(c1)N(CCCN(C)C)c1ccccc1S2 [acepromazine] | 5.63%
10 | CN(C)CC[C@@H](c1ccc(Cl)cc1)c1ccccn1 [dexchlorphenamine] | 293%
11 | CCC(C)(Oc1ccc(C2(c3ccc(OC(C)(CC)C(=O)O)cc3)CCCCC2)cc1)C(=O)O (stereo not given) [Clinofibrate] | 311%
12 | CCOCCn1cc(C(=O)Nc2ccc(-n3nc(-c4cccnc4)cc3C(F)(F)F)cn2)ccc1=O | 157%
13 | O=C1CN2Cc3c(ccc(Cl)c3Cl)N=C2N1 | 372%
14 | C[C@@H]1C(=O)NC2=Nc3cccc(Cl)c3CN21 [quazinone] | 271%
15 | COc1ccc2cc([C@H](C)C(=O)O)ccc2c1 | 300%

2 entries picked at random from those above, as already listed:
Row | Compound | percent viability
9 | CC(=O)c1ccc2c(c1)N(CCCN(C)C)c1ccccc1S2 [acepromazine] | 5.63%
1 | CCn1cc(C(=O)O)c(=O)c2cc(F)c(N3CCNCC3)cc21 [norfloxacin] | 342% and 126%

Source: the supplement of paper PMC8256030
